Literature values as cited in article PMC12881681 (Molecular Pharmacology, 2025).
Some entries of the source have several records that differ or are many. They are shown here; other results are not. There may be further records. Results that share an entry do not match, cause unknown; some may be repeats, others may stem from another dose, organism or construct than stated.

Settings: healthy non-smoker volunteers, single 150 mg dose of erlotinib; cited from earlier work

For C#Cc1cccc(Nc2ncnc3cc(OCCOC)c(OCCO)cc23)c1 [O-Desmethylerlotinib, O-desmethylerlotinib], which Cmax is on record?
Its Cmax is 43.5–98.3 ng/mL and 110 nM to 260 nM.
